The target in one experiment is CpOGA (Clostridium perfringens, UniProt Q0TR53). In words: biochemical.
The target in the next experiment is human hexosaminidase A/B. Kind of experiment: HexA/B inhibition, fluorogenic 4MU-NAG substrate. The settings on record: 230 μM substrate (Km), 15 min, pH 5.7. Format: biochemical. As for the experimental part: Further kinetic experiments to determine the mode of inhibition were carried out according to the procedure described previously. […] IC50 measurements with CpOGA, hOGA and a mixture of human hexosaminidase A/B activities (Sigma A6152) against the compounds were performed using the fluorogenic 4MU-NAG substrate and standard reaction mixtures as described previously with some changes [[39,31,40]]. Standard reaction mixtures (50 μl) contained 0.2 nM CpOGA, 2 nM hOGA or 50 μ units unit/ml HexA/B in McIlvaine buffer (0.2 M Na2HPO4 mixed with 0.1 M citric acid to pH 5.7) supplemented with 0.1 mg/ml BSA. […] The reactions were run at room temperature for 7 min (CpOGA), 60 min (hOGA) or 15 min (HexA/B).

The chains behind the UniProt entries cited, without tags or fusion partners. Residues count along the entry.
UniProt Q0TR53, 31-624 limits assumed: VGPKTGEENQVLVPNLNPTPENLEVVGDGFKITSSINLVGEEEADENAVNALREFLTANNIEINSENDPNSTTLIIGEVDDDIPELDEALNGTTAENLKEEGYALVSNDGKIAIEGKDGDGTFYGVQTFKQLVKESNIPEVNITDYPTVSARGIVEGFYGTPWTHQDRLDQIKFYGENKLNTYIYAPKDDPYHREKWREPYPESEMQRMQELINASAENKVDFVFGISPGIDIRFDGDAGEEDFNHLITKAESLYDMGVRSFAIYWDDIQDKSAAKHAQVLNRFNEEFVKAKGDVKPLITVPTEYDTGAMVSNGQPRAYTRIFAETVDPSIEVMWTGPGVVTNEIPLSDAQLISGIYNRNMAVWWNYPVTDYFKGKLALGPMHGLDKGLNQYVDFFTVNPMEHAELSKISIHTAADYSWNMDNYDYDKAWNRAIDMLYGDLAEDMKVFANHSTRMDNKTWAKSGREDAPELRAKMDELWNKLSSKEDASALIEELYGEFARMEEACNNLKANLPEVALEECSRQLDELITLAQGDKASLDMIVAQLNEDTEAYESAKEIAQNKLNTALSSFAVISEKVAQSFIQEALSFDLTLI

One may read the IC50 as the concentration that gives 50% inhibition. Higher therefore signals weaker potency in that assay. Consider `CC(=O)Nc1nnc(S(N)(=O)=O)s1` [Acetazolamide, acetazolamide], for which the IC50 at CpOGA was 80 ± 14 µM; against human hexosaminidase A/B, 32 ± 2 µM.

(Values after paper PMC2828546, “Screening-based discovery of drug-like O-GlcNAcase inhibitor scaffolds” (Febs Letters, 2010).)
